For 3 molecules, binding results are on record in paper PMC3154542 (Growth Factors (Chur, Switzerland), 2011).

Sequences of proteins named here, by UniProt entry; tags and fusion partners are left off. Residues count along the entry.
UniProt P37023, residues 22-118: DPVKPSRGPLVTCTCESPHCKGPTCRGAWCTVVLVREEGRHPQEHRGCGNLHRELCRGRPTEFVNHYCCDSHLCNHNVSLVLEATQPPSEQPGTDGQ

These are yes or no findings as the source states them, for the method shown. For some assays here: Sequences can lack the tags named with a protein.

In assay [1] the target is ALK1-Fc (activin receptor-like kinase 1 extracellular domain linked to the human IgG Fc region) (UniProt P37023). The assay can be described thus: BLI; receptor extracellular domain-Fc chimeras immobilised on anti-human IgG Fc biosensor tips (ForteBio Octet RED); sixfold serial dilutions of human BMPs in solution; association 10 min, dissociation 30 min; global fit to a 1:1 Langmuir model; both purified. For orientation: In BLI a coated tip is dipped into the sample, and binding shifts an interference pattern.

Assay [2] deals with T1, ALK2-Fc (activin receptor-like kinase 2 extracellular domain linked to the human IgG Fc region) (UniProt Q04771).
T1 sequence: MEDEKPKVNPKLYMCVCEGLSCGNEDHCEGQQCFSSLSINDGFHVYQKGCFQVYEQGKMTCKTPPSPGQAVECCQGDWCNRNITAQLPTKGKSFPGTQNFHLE
Described as above.

B1: recombinant human bone morphogenetic protein 2 (rhBMP2) (ligand, UniProt P12643 283-396, looked up)
chain: QAKHKQRKRLKSSCKRHPLYVDFSDVGWNDWIVAPPGYHAFYCHGECPFPLADHLNSTNHAIVQTLVNSVNSKIPKACCVPTELSAISMLYLDENEKVVLKNYQDMVVEGCGCR
notes: bone morphogenetic protein 2, human, mature domain; homodimer by non-reducing SDS-PAGE; source: CHO cells, purified (as in Wang et al. 1990)
As to B1, the binding result in assay [1] was “no binding”.

B2: recombinant human bone morphogenetic protein 12 (rhBMP12) (ligand, UniProt Q7Z4P5 322-450, looked up)
chain: TALAGTRTAQGSGGGAGRGHGRRGRSRCSRKPLHVDFKELGWDDWIIAPLDYEAYHCEGLCDFPLRSHLEPTNHAIIQTLLNSMAPDAAPASCCVPARLSPISILYIDAANNVVYKQYEDMVVEACGCR
notes: bone morphogenetic protein 12 (BMP12, also known as GDF7), human, mature form; homodimer by non-reducing SDS-PAGE
As for B2, the binding entry in assay [2] and in assay [1] was “no binding” throughout.

B3: recombinant human bone morphogenetic protein 13 (rhBMP13) (ligand, UniProt Q6KF10 336-455, looked up)
chain: TAFASRHGKRHGKKSRLRCSKKPLHVNFKELGWDDWIIAPLEYEAYHCEGVCDFPLRSHLEPTNHAIIQTLMNSMDPGSTPPSCCVPTKLTPISILYIDAGNNVVYKQYEDMVVESCGCR
notes: bone morphogenetic protein 13 (BMP13, also known as GDF6), human, mature form; homodimer by non-reducing SDS-PAGE
In the case of B3, the binding entry in assay [2] and in assay [1] was “no binding” each time.
